Measured values published in the supplement of paper PMC10373366.
The list shows a part of the results. Many values rest on one well or one pass, so single values are uncertain.

System: patient-derived ovarian cancer cells (PDC)
Assay: cell growth inhibition ratio vs untreated control (CCK8); higher = stronger inhibition of cell viability
Settings: 10 µM; 48 h
Method: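 Natural product library (Topscience) screened at 10 µM final concentration for 48 h on ovarian cancer A2780 cells and patient-derived ovarian cancer cells (PDC) in 96-well plates; viability read by CCK8 and reported as inhibition ratio (%) relative to untreated control. Single-dose primary screen.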

Structure (SMILES)	cell growth inhibition ratio
O=C1C(=C(O)C=Cc2ccc(O)cc2)C(O)=C([C@@H]2O[C@H](CO)[C@@H](O)[C@H](O)[C@H]2O)C(=O)C1(O)[C@@H]1O[C@H](CO)[C@@H](O)[C@H](O)[C@H]1O (some centres undefined) [Hydroxysafflor yellow A]	-0.441%
CC(C)c1cccc(O)c(=O)c1 [β-thujaplicin]	29.8%
C[n+]1cc2c3c(ccc2c2ccc4cc5c(cc4c21)OCO5)OCO3 [Sanguinarine chloride]	89.9%
CC(C)=C[C@H]1C[C@](C)(O)[C@@H]2[C@H]3CC[C@@H]4[C@@]5(C)CC[C@H](OC6OC[C@H](O)[C@H](O[C@@H]7O[C@H](CO[C@@H]8O[C@H](CO)[C@@H](O)[C@H](O)[C@H]8O)[C@@H](O)[C@H](O)[C@H]7O[C@@H]7OC[C@@H](O)[C@H](O)[C@H]7O)[C@H]6O[C@@H]6O[C@@H](C)[C@H](O)[C@@H](O)[C@H]6O)C(C)(C)[C@@H]5CC[C@@]4(C)C34CO[C@@]2(C4)O1 (some centres undefined) [Jujuboside A]	0.262%
CCC(=O)O[C@]1(C(=O)CO)CC[C@H]2[C@@H]3CCC4=CC(=O)CC[C@]4(C)[C@H]3CC[C@@]21C [17 alpha-propionate]	0.961%
CC(C)=CCC[C@](C)(O[C@@H]1O[C@H](CO)[C@@H](O)[C@H](O)[C@H]1O)[C@H]1CC[C@]2(C)[C@@H]1[C@H](O)C[C@@H]1[C@@]3(C)CC[C@H](O)C(C)(C)[C@@H]3[C@@H](O[C@@H]3O[C@H](CO)[C@@H](O)[C@H](O)[C@H]3O)C[C@]12C [Ginsenoside Rg1]	-8.84%
COc1c2c(cc3oc(C)cc(=O)c13)OC(C(C)(C)O[C@@H]1O[C@H](CO)[C@@H](O)[C@H](O)[C@H]1O)C2 (some centres undefined) [5-O-Methylvisammioside]	5.37%
C[C@@H]1O[C@@H](Oc2cc(O)c3c(=O)c(O[C@@H]4O[C@@H](C)[C@H](O)[C@@H](O)[C@H]4O)c(-c4ccc(O)cc4)oc3c2)[C@H](O)[C@H](O)[C@H]1O [Kaempferitrin]	11%
CN1c2ccccc2C(=O)N2CCc3c([nH]c4ccccc34)C21 (stereo in doubt) [Evodiamine]	14.1%
CCCCCC1C(=O)CCC1CC(=O)OC (centres undefined) [Methyl Dihydrojasmonate;Hedione]	-7.95%
C[C@H](O)[C@H]1CC[C@H]2[C@@H]3CC[C@@H]4C[C@H](O)CC[C@]4(C)[C@H]3CC[C@]12C [5Beta-Pregnane-3Alpha,20alpha-Diol]	41.4%
C[C@H]1[C@H](C)CC[C@]2(C(=O)O)CC[C@]3(C)C(=CC[C@@H]4[C@@]5(C)CCC(=O)C(C)(C)[C@@H]5CC[C@]43C)[C@H]12 [Ursonic Acid]	5.62%
N[C@@H](Cc1c[nH]c2ccc(O)cc12)C(=O)O [L-5-Hydroxytryptophan]	1%
CN[C@@H](C)[C@H]1[C@H](O)C[C@@]2(C)[C@@H]3CC[C@H]4C(C)(C)[C@@H](NC)CC[C@@]45C[C@@]35CC[C@]12C [Cyclovirobuxin D]	10.2%
CC(C)CCCCC(=O)N[C@@H](CCN)C(=O)N[C@@H](CN[C@@H](CCN)C(=O)N[C@H]1CCNC(=O)[C@H]([C@@H](C)O)NC(=O)[C@H](CCN)NC(=O)[C@H](CCN)NC(=O)[C@H](CC(C)C)NC(=O)[C@@H](CC(C)C)NC(=O)[C@H](CCN)NC1=O)[C@@H](C)O.CCC(C)CCCCC(=O)N[C@@H](CCN)C(=O)N[C@@H](CN[C@@H](CCN)C(=O)N[C@H]1CCNC(=O)[C@H]([C@@H](C)O)NC(=O)[C@H](CCN)NC(=O)[C@H](CCN)NC(=O)[C@H](CC(C)C)NC(=O)[C@@H](CC(C)C)NC(=O)[C@H](CCN)NC1=O)[C@@H](C)O (some centres undefined) [Colistin sulfate]	-10.1%
COc1cc2c(=O)c3c(O)c([C@@H]4O[C@H](CO[C@@H]5OC[C@](O)(CO)[C@H]5O)[C@@H](O)[C@H](O)[C@H]4O)c(O)cc3oc2cc1O [polygalaxanthone III]	-2.75%
COc1cc(O)c2c(c1)C(=O)c1cc(C)cc(O)c1C2=O [Rheochrysidin]	-25%
COc1ccc(-c2cc(=O)c3c(O)cc(O)cc3o2)cc1O [Diosmetin]	73.2%
CC[C@H](CC[C@@H](C)[C@H]1CC[C@H]2[C@@H]3CC=C4C[C@@H](O)CC[C@]4(C)[C@H]3CC[C@]12C)C(C)C [Beta-Sitosterol]	2.04%

4 entries from above, arranged by length of the SMILES, descending:
Structure (SMILES)	cell growth inhibition ratio
CN[C@@H](C)[C@H]1[C@H](O)C[C@@]2(C)[C@@H]3CC[C@H]4C(C)(C)[C@@H](NC)CC[C@@]45C[C@@]35CC[C@]12C [Cyclovirobuxin D]	10.2%
COc1c2c(cc3oc(C)cc(=O)c13)OC(C(C)(C)O[C@@H]1O[C@H](CO)[C@@H](O)[C@H](O)[C@H]1O)C2 (some centres undefined) [5-O-Methylvisammioside]	5.37%
COc1ccc(-c2cc(=O)c3c(O)cc(O)cc3o2)cc1O [Diosmetin]	73.2%
CC(C)c1cccc(O)c(=O)c1 [β-thujaplicin]	29.8%
